# Reference: PubChem BioAssay AID504834 (National Center for Advancing Translational Sciences (NCATS), 2011)
# Several values for one entry are separate records, joined by “and”; a condition that tells them apart may be missing. Identical values can stand only once. Screen size: about 320,000 compounds; about 22,000 (6.9%) were called active. Inconclusive results, whose numbers are uncertain, are shown with a selection of clear calls. Calls follow the shape of the dose curve; as a rule, active = well fitted inhibition curve with a large enough effect; inconclusive = small, poorly fitted or top-dose-only effect, or another doubt; inactive = no such curve, though single readings can be large or run the other way. Where the call is inconclusive, the potency comes from a doubtful curve fit.
# Test: Primary qHTS for delayed death inhibitors of the malarial parasite plastid, 96 hour incubation
# Settings: P. falciparum luciferase reporter growth; series mostly up to 28.7 µM; activity change, negative = inhibition: at the top concentration
# Method in brief: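 96 h incubation, 37 C, 5% CO2, of luciferase-reporter P. falciparum-infected RBCs (2% hematocrit, 0.05% parasitemia final) with test compounds; endpoint luminescence.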
# % is scaled to controls: 0 for no effect and ±100 for the full control effect; potency is read from the fitted curve at half-maximal effect.
SMILES,Potency,"activity change, negative = inhibition"
COc1ccc(OC)c(S(=O)(=O)Nc2ccc(C(N)=O)cc2)c1,"inconclusive: 2.62 µM [inhibitor, partial curve]",
O=C(NCCCN1CCCC1=O)c1ccc(Cl)c(NS(=O)(=O)c2ccc(F)cc2)c1,"inconclusive: 10.4 µM [inhibitor, single point]",
O=C1CC(N2CCN(Cc3ccc4c(c3)OCO4)CC2)C(=O)N1Cc1ccc(N2CCCC2=O)cc1 (stereo not given),active: 9.28 µM,
COn1c(C)c(C)c2c3nonc3ccc21,,inactive: 0%
C[N+]1(CC#CC(O)(c2ccccc2)c2ccccc2)CCCC1,active: 5.22 µM,
CN1CCN(C(=O)c2cnn3c2NC(c2ccccc2)CC3C(F)(F)F)CC1 (stereo not given),,inactive: 61.8%
O=C(NCc1ccc2c(c1)OCO2)C1CCC(CNS(=O)(=O)c2cccc3nsnc23)CC1 (stereo not given),"inconclusive: 18.5 µM [inhibitor, single point]",
COc1ccccc1S(=O)(=O)Cc1ccc(C(=O)NC2CC2)o1,"inconclusive: 9.28 µM [inhibitor, partial curve]",
CCC(=O)N1N=C(c2ccc(C)o2)CC1c1ccc(OC)cc1 (stereo not given),,inactive: 52.3%
CCC(c1nnc(SCC(=O)N2CC(=O)Nc3ccccc32)n1Cc1ccccc1)N(C)C (stereo not given),"inconclusive: 18.5 µM [inhibitor, single point]",
Cc1csc(CNc2ncnc3ccc(-c4ccc5c(c4)OCCO5)cc23)c1,"inconclusive: 16.5 µM [inhibitor, partial curve, poor fit] and inconclusive: 16.5 µM [inhibitor, single point]",
COc1ccc(/C=c2/sc3nc(-c4ccccc4)c(-c4ccccc4)n3c2=O)cc1,,inactive: 9.4%
Cc1ccccc1CN1CCCC(C(=O)Nc2ccccc2Oc2cccnc2)C1 (stereo not given),,inactive: 3.07%
CCc1cccc(CC)c1C(O)c1cccnc1 (stereo not given),"inconclusive: 14.7 µM [inhibitor, partial curve, poor fit]",
CN1CCN(C(=S)c2cn(Cc3ccc(F)cc3)c3ccccc23)CC1,"inconclusive: 3.7 µM [inhibitor, full curve]",
Cc1ccc(NC(=O)C2CCC(CNc3c(N4CCC(C)CC4)c(=O)c3=O)CC2)cc1F (stereo not given),"inconclusive: 5.22 µM [inhibitor, partial curve]",
COc1ccccc1C1C(C#N)=C(N)N(N(C)C)C2=C1C(=O)CC(C)(C)C2 (stereo not given),,inactive: 0%
COc1ccc(S(=O)(=O)NNC(=S)NCCc2ccccc2)c(OC)c1,"inconclusive: 18.5 µM [inhibitor, single point]",
O=C(NCC1CCCO1)C1C2C=CC3(CN(Cc4cccs4)C(=O)C13)O2 (stereo not given),active: 4.65 µM,
CC1CCN(c2c(NCc3ccc(C(=O)NCCc4ccc(Cl)cc4)cc3)c(=O)c2=O)CC1,active: 8.28 µM,
CCCc1c(C(=O)N/N=C/C(C)=C/c2ccco2)nnn1-c1nonc1N,"inconclusive: 18.5 µM [inhibitor, single point]",
CC(C)C(=O)Nc1nnc(CCN(CCc2nnc(NC(=O)C(C)C)s2)[N+](=O)[O-])s1,"inconclusive: 0.294 µM [inhibitor, partial curve, poor fit]",
CCCN(Cc1ccccc1)C(=S)Nc1ccc(OC(F)F)cc1,,inactive: 6.59%
CC(C)(C)c1ccc(OCC(=O)N(Cc2cccs2)C2CCS(=O)(=O)C2)cc1 (stereo not given),"inconclusive: 3.29 µM [inhibitor, full curve]",

SMILES,Potency,"activity change, negative = inhibition"
O=C(Nc1ccncc1)C1CCN(S(=O)(=O)c2cccc(C(F)(F)F)c2)CC1,active: 9.28 µM,
O=C(NCc1ccco1)c1cccc(S(=O)(=O)N2CCCC2)c1,"inconclusive: 0.928 µM [inhibitor, full curve]",
CCc1noc(C)c1C(=O)Nc1ccccc1C(C)(C)C,"inconclusive: 9.28 µM [inhibitor, single point]",
COc1ccc(NS(=O)(=O)c2ccc(C)c(C(=O)NNC(=O)c3ccccc3O)c2)cc1,,inactive: 19.3%
CCc1ccc(O)c(N=Cc2cccc(C)c2O)c1,"inconclusive: 13.1 µM [inhibitor, partial curve, poor fit]",
CCOC(=O)CSc1ccc(C(=O)NCCN2CCOCC2)cc1[N+](=O)[O-],"inconclusive: 1.47 µM [inhibitor, full curve, poor fit]",
O=C(NC1CC2CCCC(C1)N2CC(=O)N1CCCc2ccccc21)C1CCCCC1 (stereo not given),active: 14.7 µM,
C[C@](N)(Cc1ccc(O)c(O)c1)C(=O)O,"inconclusive: 19 µM [inhibitor, single point]",
COc1ccc(C(=O)NC2CCSc3ccccc32)cc1S(=O)(=O)N1CCOCC1 (stereo not given),"inconclusive: 10.4 µM [inhibitor, single point]",
O=C(NCc1ccc(Cl)cc1)C1CCCN1C(=O)Nc1ccccc1 (stereo not given),"inconclusive: 18.5 µM [inhibitor, single point]",
Cc1c(C(=O)N2CC(C(=O)N3CCCCC3)Oc3ccccc32)oc2ccccc12 (stereo not given),active: 13.1 µM,
O=C(Nc1ccc(NC(=S)NC(=O)c2ccccc2F)cc1)c1cccs1,"inconclusive: 10.4 µM [inhibitor, partial curve]",
COc1ccc(C(=O)NC2CCN(S(=O)(=O)c3ccccc3F)CC2)cc1,,inactive: -13.2%
N#Cc1ccc(-c2ccccc2)nc1SCC(=O)c1cc2ccccc2oc1=O,"inconclusive: 11.7 µM [inhibitor, single point]",
CN(CC(=O)OCC(N)=O)S(=O)(=O)c1ccc(Cl)cc1,,inactive: 0.248%
O=S(=O)(NN1CCOCC1)c1ccc(Br)s1,"inconclusive: 16.5 µM [inhibitor, single point]",
CN(CCC#N)C(=O)COC(=O)c1c2c(nc3ccccc13)/C(=C/c1ccco1)CC2,,inactive: -34.1%
O=C(CNC(=O)c1ccc(Br)o1)NCc1ccccc1Cl,"inconclusive: 18.5 µM [inhibitor, single point]",
Cc1sc2nc(CSc3nnnn3-c3ccc(Cl)cc3)[nH]c(=O)c2c1C,"inconclusive: 7.38 µM [inhibitor, partial curve]",
O=C(c1ccc(SCc2ccco2)c([N+](=O)[O-])c1)N1CCOCC1,"inconclusive: 13.1 µM [inhibitor, partial curve, poor fit]",
Cc1ccc2c(c1)c(N=Nc1ccc([N+](=O)[O-])cc1)c(O)n2C,"inconclusive: 0.0033 µM [inhibitor, full curve, poor fit]",
CC(NC(=O)/C(C#N)=C/c1ccco1)c1ccccc1 (stereo not given),,inactive: -19.7%
Cc1nnc(Nc2ccc(C(=O)O)cc2)[nH]c1=O,,inactive: 3.38%
CC(=O)c1c(N2CCN(c3ccc(F)cc3)CC2)nc(=S)n(-c2ccccc2)c1C,"inconclusive: 18.5 µM [inhibitor, single point]",

SMILES,Potency,"activity change, negative = inhibition"
COc1ccc(C(C(=O)NC2CCCC2)N(C(=O)c2ccoc2C)c2ccc(C)c(C)c2)cc1 (stereo not given),active: 1.04 µM,
O=C(CN1CCN(Cc2ccccc2F)CC1)Nc1ccccc1Cl,,inactive: 19.8%
C1=Nc2c(Nc3ccccc3)ncnc2Oc2ccccc21,active: 13.1 µM,
CCOC(=O)Cn1c(=O)oc2cc(S(=O)(=O)N3CCC(N4CCCCC4)CC3)ccc21,"inconclusive: 14.7 µM [inhibitor, partial curve, poor fit]",
O=C(NCCc1cn2ccccc2n1)C1CCCCC1,,inactive: 36.3%
CCCCN(C1CCS(=O)(=O)C1)S(=O)(=O)c1ccc(OC)cc1 (stereo not given),"inconclusive: 18.5 µM [inhibitor, single point]",
CCn1c(O)c(N=NC(=O)c2ccc(CSc3nncn3C)cc2)c2ccccc21,active: 11.7 µM,
CN1CCc2c(sc(NC(=O)c3ccco3)c2C(N)=O)C1,"inconclusive: 11.7 µM [inhibitor, single point]",
CCOC(=O)c1ccc(NC(=S)NCCCN2CCOCC2)cc1,,inactive: 0%
CNC(=O)c1c(NC(=O)C2=COCCO2)sc2c1CCCC2,active: 13.1 µM,
COC1=CC(=O)CC(C)C12Oc1cc(OC)cc(OC)c1C2=O (stereo not given),"inconclusive: 13.1 µM [inhibitor, partial curve, poor fit]",
COc1cc2c(cc1OC)CN(C(=S)NC(=O)c1ccccc1)CC2,"inconclusive: 9.28 µM [inhibitor, partial curve, poor fit]",
CCOC(=O)[C@H]1[C@H]2COc3ccc(Br)cc3[C@@H]2N2C(=O)CN(Cc3ccccc3)C(=O)[C@@]12C,"inconclusive: 8.28 µM [inhibitor, single point]",
CNC(=O)c1ccc(Nc2nnc(-c3ccc(C)c(S(=O)(=O)NCC4CCCO4)c3)c3ccccc23)cc1 (stereo not given),"inconclusive: 0.0928 µM [inhibitor, full curve, poor fit]",
O=C(Nc1nccs1)c1cn(-c2ccccc2)nc1-c1ccncc1,"inconclusive: 5.86 µM [inhibitor, single point]",
Cc1[nH]nc2c1/C(=N/O)CC(c1ccccc1)C2 (stereo not given),"inconclusive: 2.33 µM [inhibitor, single point]",
COc1ccc(-c2nnc(SCC(=O)Nc3ccc4c(c3)OCCO4)n2N)cc1OC,"inconclusive: 0.208 µM [inhibitor, full curve, poor fit]",
O=C(C[n+]1cccc(C(=O)N/N=C/c2cccc([N+](=O)[O-])c2)c1)c1ccccc1,"inconclusive: 16.5 µM [inhibitor, single point]",
O=Cc1c(Cl)nc2ccccn12,,inactive: 28.2%
CCOC(=O)c1ccc(N2C(=O)Cc3ccccc3C2=O)cc1,,inactive: -18.8%
CC(C(=O)N1CCCC1)N1CCN(c2ccccc2O)CC1 (stereo not given),,inactive: -4.85%
COc1ccc(CN2C3CCCC2CC(NC(=O)Nc2ccccc2C)C3)cc1 (stereo not given),"inconclusive: 18.5 µM [inhibitor, single point]",
